Source: PubChem BioAssay AID1259254 (NCATS, 2017)

Test: 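Finding genes that stop cells copying their DNA twice in one cycle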 (primary screen)
Cells: human HCT116 colorectal cancer cells
Knock-down reagent: single siRNA against human genes
Duration: 3 days
Read-out: 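Nuclei stained with Hoechst and imaged; cell-cycle phase assigned by DNA content; G2 share scaled per plate, non-targeting siRNA 0%, GMNN siRNA 100%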
Reading the numbers: G2 robust z-score and G2 cells, % of GMNN control: higher = more G2 cells, more excess DNA replication; raw share of cells in G2: higher = larger share of cells with G2 DNA content
Active means: 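An siRNA counts as active if its G2 robust z-score lies at least 5 MADs above the screen median; here such calls match roughly 38% of GMNN control or more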
This is an unselected part of about 59,000 reagents. Over the whole deposit, about 1,550 (2.6%) were called active. 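G2 share is only a proxy for re-replication; each gene was hit by three separate siRNAs, and active genes were retested.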 Raw values vary from plate to plate and are shown uncorrected. A number with no mark means an inactive call. Reagents against one gene are numbered here. No sequences are given here. Not given: the amount of reagent.

gene | siRNA no. | G2 robust z-score | G2 cells, % of GMNN control | raw share of cells in G2 (%)
DIDO1 (GeneID 11083) | 1 | 0.511 | 6.56 | 7.56
DIDO1 (GeneID 11083) | 2 | 3.57 | 28.1 | 15.7
DIDO1 (GeneID 11083) | 3 | 3.13 | 25 | 12.5
FGA (GeneID 2243) | 1 | 1.38 | 12.7 | 9.85
FGA (GeneID 2243) | 2 | -0.619 | -1.39 | 4.74
FGA (GeneID 2243) | 3 | -0.652 | -1.62 | 3.08
CR1 (GeneID 1378) | 1 | 0.797 | 8.58 | 8.13
CR1 (GeneID 1378) | 2 | -0.132 | 2.04 | 4.8
CR1 (GeneID 1378) | 3 | -0.532 | -0.776 | 4.68
SMARCE1 (GeneID 6605) | 1 | 3.33 | 26.4 | 14.6
SMARCE1 (GeneID 6605) | 2 | 4.75 | 36.4 | 17
SMARCE1 (GeneID 6605) | 3 | 0.208 | 4.43 | 5.42
IL24 (GeneID 11009) | 1 | -1.01 | -4.14 | 3.89
IL24 (GeneID 11009) | 2 | -0.124 | 2.1 | 4.52
IL24 (GeneID 11009) | 3 | -1.08 | -4.61 | 4.66
COX17 (GeneID 10063) | 1 | -0.968 | -3.84 | 1.89
COX17 (GeneID 10063) | 2 | -0.741 | -2.25 | 4.35
COX17 (GeneID 10063) | 3 | -1.3 | -6.14 | 2.26
C1QTNF5 (GeneID 114902) | 1 | 1.55 | 13.8 | 7.45
C1QTNF5 (GeneID 114902) | 2 | 2.03 | 17.3 | 6.86
C1QTNF5 (GeneID 114902) | 3 | 0.218 | 4.5 | 5.9
FOXS1 (GeneID 2307) | 1 | -0.305 | 0.82 | 3.95
FOXS1 (GeneID 2307) | 2 | 4.02 | 31.2 | 16.6
FOXS1 (GeneID 2307) | 3 | 1.64 | 14.5 | 10.8
STAT1 (GeneID 6772) | 1 | 2.82 | 22.8 | 11.5
STAT1 (GeneID 6772) | 2 | -0.473 | -0.364 | 4.42
STAT1 (GeneID 6772) | 3 | -1.1 | -4.74 | 4.09
TIGAR (GeneID 57103) | 1 | -1.27 | -5.98 | 1.99
TIGAR (GeneID 57103) | 2 | 1.18 | 11.2 | 9.83
TIGAR (GeneID 57103) | 3 | 3.66 | 28.7 | 12.1
RPAP3 (GeneID 79657) | 1 | -0.175 | 1.74 | 5.17
RPAP3 (GeneID 79657) | 2 | -0.38 | 0.295 | 4.43
RPAP3 (GeneID 79657) | 3 | -0.327 | 0.664 | 2.56
SMCO2 (GeneID 341346) | 1 | 0.568 | 6.96 | 6.38
SMCO2 (GeneID 341346) | 2 | 0.32 | 5.22 | 5.54
SMCO2 (GeneID 341346) | 3 | 1.05 | 10.4 | 8.37
SLC35D1 (GeneID 23169) | 1 | -0.0976 | 2.28 | 5.88
SLC35D1 (GeneID 23169) | 2 | -0.547 | -0.879 | 3.77
SLC35D1 (GeneID 23169) | 3 | -0.233 | 1.33 | 3.67
RAMAC (GeneID 83640) | 1 | 0.73 | 8.11 | 6.81
RAMAC (GeneID 83640) | 2 | 1.29 | 12 | 7.02
RAMAC (GeneID 83640) | 3 | 0.0752 | 3.5 | 3.47
IFIT2 (GeneID 3433) | 1 | 0.146 | 3.99 | 6.5
IFIT2 (GeneID 3433) | 2 | 2.47 | 20.4 | 13.4
IFIT2 (GeneID 3433) | 3 | -0.341 | 0.571 | 4.41
KCNC4 (GeneID 3749) | 1 | 1.6 | 14.3 | 10.5
KCNC4 (GeneID 3749) | 2 | -0.877 | -3.2 | 3.7
KCNC4 (GeneID 3749) | 3 | 5.23 (active) | 39.8 | 19.9
TAAR8 (GeneID 83551) | 1 | 3.27 | 26 | 15.1
TAAR8 (GeneID 83551) | 2 | 0.138 | 3.94 | 5.89
TAAR8 (GeneID 83551) | 3 | 0.0105 | 3.04 | 4.2
PCGF3 (GeneID 10336) | 1 | -1.13 | -5.01 | 1.86
PCGF3 (GeneID 10336) | 2 | -1.24 | -5.77 | 3.42
PCGF3 (GeneID 10336) | 3 | 0.132 | 3.89 | 4.97
LOC728587 (GeneID 728587) | 1 | -0.0176 | 2.84 | 5.02
LOC728587 (GeneID 728587) | 2 | -0.121 | 2.12 | 4
LOC728587 (GeneID 728587) | 3 | 0.496 | 6.46 | 5.62
PPP5C (GeneID 5536) | 1 | 2.61 | 21.4 | 11.7
PPP5C (GeneID 5536) | 2 | -0.746 | -2.28 | 3.62
PPP5C (GeneID 5536) | 3 | 0.132 | 3.89 | 4.67
CTSL (GeneID 1514) | 1 | 0.68 | 7.75 | 6.8
CTSL (GeneID 1514) | 2 | -0.139 | 1.99 | 6.25
CTSL (GeneID 1514) | 3 | 0.494 | 6.44 | 7.19
CYRIB (GeneID 51571) | 1 | -1.05 | -4.39 | 2.03
CYRIB (GeneID 51571) | 2 | -0.888 | -3.28 | 2.89
CYRIB (GeneID 51571) | 3 | -0.355 | 0.466 | 3.35
SETD6 (GeneID 79918) | 1 | 0.159 | 4.09 | 6.14
SETD6 (GeneID 79918) | 2 | -0.273 | 1.05 | 4.76
SETD6 (GeneID 79918) | 3 | -1.07 | -4.54 | 1.14

Not a retest: 11 of the entries above.
gene | siRNA no. | G2 robust z-score | G2 cells, % of GMNN control | raw share of cells in G2 (%)
LOC728587 (GeneID 728587) | 2 | -0.121 | 2.12 | 4
LOC728587 (GeneID 728587) | 3 | 0.496 | 6.46 | 5.62
PPP5C (GeneID 5536) | 1 | 2.61 | 21.4 | 11.7
PPP5C (GeneID 5536) | 2 | -0.746 | -2.28 | 3.62
PPP5C (GeneID 5536) | 3 | 0.132 | 3.89 | 4.67
CTSL (GeneID 1514) | 1 | 0.68 | 7.75 | 6.8
CTSL (GeneID 1514) | 2 | -0.139 | 1.99 | 6.25
CTSL (GeneID 1514) | 3 | 0.494 | 6.44 | 7.19
CYRIB (GeneID 51571) | 1 | -1.05 | -4.39 | 2.03
CYRIB (GeneID 51571) | 2 | -0.888 | -3.28 | 2.89
CYRIB (GeneID 51571) | 3 | -0.355 | 0.466 | 3.35
